Assay results from article PMC4081077.
For at least one entry, the source does not settle the construct or the ends of the probe. For some assays here: No signal at the amounts used counts as a negative. For some assays here: At least one verdict rests on a figure or table, not on a statement of the authors. For some assays here: Where a protein sequence is shown, tags need not be part of it. For some assays here: A weaker result is weaker than the reference pair of the same experiment. For some assays here: Whether high values mean tight binding is not given here for every scale.

Tests used:
[1] = molecular target: T1, TrfA-33 G254D/S267L (monomeric) (plasmid RK2) (UniProt P07676); experiment: SPR; conditions: only slight interaction; SPR: HBS-EP (150 mM NaCl, 10 mM HEPES pH 7.4, 3 mM EDTA, 0.005% P20); recombinant protein; label: immobilized on streptavidin chip
T1 sequence (looked up, limits assumed): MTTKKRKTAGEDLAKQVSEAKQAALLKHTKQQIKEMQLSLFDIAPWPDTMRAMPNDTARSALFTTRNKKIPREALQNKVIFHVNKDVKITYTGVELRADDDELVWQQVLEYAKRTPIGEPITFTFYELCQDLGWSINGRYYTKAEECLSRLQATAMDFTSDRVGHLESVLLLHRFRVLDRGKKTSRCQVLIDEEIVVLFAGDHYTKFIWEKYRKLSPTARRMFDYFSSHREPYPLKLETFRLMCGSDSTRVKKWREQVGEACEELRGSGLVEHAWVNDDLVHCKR

[2] = molecular target: RepE R118P (monomeric) (plasmid F) (UniProt P03856); experiment: EMSA; conditions: EMSA: 40 mM HEPES-KOH pH 8, 25 mM Tris-HCl pH 7.6, 100 mM NaCl, 4% sucrose, 4 mM DTT, 80 ug/ml BSA, 32 C 20 min, 1 pmol probe, 5-20 pmol Rep, recombinant protein, label: Alexa555 3' tailed, single-stranded DNA
[3] = molecular target: T1, TrfA-33 G254D/S267L (monomeric) (plasmid RK2); experiment: gel filtration; conditions: recombinant protein, single-stranded DNA
[4] = molecular target: T1, TrfA-33 G254D/S267L (monomeric) (plasmid RK2); experiment: AFM; conditions: recombinant protein, single-stranded DNA; for binding signal (% molecules in tripartite complex): TrfA prebound to linear iteron dsDNA, 10% or less
[5] = molecular target: T1, TrfA-33 G254D/S267L (monomeric) (plasmid RK2); experiment: EMSA; conditions: EMSA: 40 mM HEPES-KOH pH 8, 25 mM Tris-HCl pH 7.6, 100 mM NaCl, 4% sucrose, 4 mM DTT, 80 ug/ml BSA, 32 C 20 min, 1 pmol probe, 5-20 pmol Rep, recombinant protein
[6] = tripartite with supercoiled plasmid

CCACCGCTAACCTGTCTTTTAACCTGCTTTTAAACCAATATTTATAAACCTTGTTTTTAACCAGGGCTGC (double strand) [dsDNA DUEoriV]
binding result [1]: binds more weakly

CCACGGGGATATTTTTATAATTATTTTTTTTATAGTTTTTAGATCTTCTTTTTTAGAGC [ssDNA DUEoriS top]
binding result ([2]; legend: binds one specific strand, bottom strand named in Fig S7): no binding

CCACCGCATTGGACAGAAAATTGGACGAAAATAACCAATATTTATAAACCTTGTTTTTAACCAGGGCTGC [ssDNA DUEoriV bottom swap M2-R]
binding result [3, 6]: binds more weakly | binding signal (% molecules in tripartite complex) [4]: < 10

CCACCGCTAACCTGTCTTTTAACCTGCTTTTAAACCAATATTTATAAACCTTGTTTTTAACCAGGGCTGC [ssDNA DUEoriV top]
binding result ([3]; tripartite with supercoiled pKD19L1 1-6): no binding | binding result ([4]; TrfA prebound to N10, tripartite count almost as low as no-ssDNA control): no binding

AGCTCACAATTCCACACAACATACGAGCCGGAAGCATAAAGTGTAAAGCCTGGGGTGCCTAATGAGTGAGCTAACTCACATTAATTGCGTTGCGCTCACTGCCCGCTTTCCAGTCGGGAAACCTGTCGT (double strand) [dsDNA pUC18 fragment]
binding result [1]: binds more weakly

AAGCCGTGTGCGAGACACCGCGGCCGCCGGCGTTGTGGATACCTCGCGGAAAACTTGGCCCTCACTGACAGATGAGGGGCGGACGTTGACACTTGAGGGGCCGACTCACCCGGCGCGGCGTTGACAGATGAGGGGCAGGCTCGATTTCGGCCGGCGACGTGGAGCTGGCCAGCCTCGCAAATCGGCGAAAACGCCTGATTTTACGCGAGTTTCCCACAGATGATGTGGACAAGCCTGGGGATAAGTGCCCTGCGGTATTGACACTTGAGGGGCGCGACTACTGACAGATGAGGGGCGCGATCCTTGACACTTGAGGGGCAGAGTGCTGACAGATGAGGGGCGCACCTATTGACATTTGAGGGGCTGTCCACAGGCAGAAAATCCAGCATTTGCAAGGGTTTCCGCCCGTTTTTCGGCCACCGCTAACCTGTCTTT (double strand) [dsDNA oriV (minimal origin PCR fragment)]
binding result ([5]; five retarded bands, label: Alexa555 3' tailed, probe letters rebuilt from the primers and the genome): binds

CCACCGCATTGGACAGAAAAAACCTGCTTTTAAACCAATATTTATAAACCTTGTTTTTAACCAGGGCTGC [ssDNA DUEoriV bottom swap M1-R]
binding result [3, 6]: binds more weakly | binding signal (% molecules in tripartite complex) [4]: < 10

GCTCTAAAAAAGAAGATCTAAAAACTATAAAAAAAATAATTATAAAAATATCCCCGTG [ssDNA DUEoriS bottom]
binding result [2]: binds

CCACCGCATTGGACAGAAAATTGGACGAAAATTTGGTTATAAATTAAACCTTGTTTTTAACCAGGGCTGC [ssDNA DUEoriV bottom swap R]
binding result ([5]; one retarded band instead of two, single-stranded DNA): binds more weakly | binding result [3, 6]: binds more weakly | binding signal (% molecules in tripartite complex) [4]: < 10
